# Article PMC10879184
# By UniProt entry, the sequences of proteins in these tests, tags left out.
# UniProt Q61602: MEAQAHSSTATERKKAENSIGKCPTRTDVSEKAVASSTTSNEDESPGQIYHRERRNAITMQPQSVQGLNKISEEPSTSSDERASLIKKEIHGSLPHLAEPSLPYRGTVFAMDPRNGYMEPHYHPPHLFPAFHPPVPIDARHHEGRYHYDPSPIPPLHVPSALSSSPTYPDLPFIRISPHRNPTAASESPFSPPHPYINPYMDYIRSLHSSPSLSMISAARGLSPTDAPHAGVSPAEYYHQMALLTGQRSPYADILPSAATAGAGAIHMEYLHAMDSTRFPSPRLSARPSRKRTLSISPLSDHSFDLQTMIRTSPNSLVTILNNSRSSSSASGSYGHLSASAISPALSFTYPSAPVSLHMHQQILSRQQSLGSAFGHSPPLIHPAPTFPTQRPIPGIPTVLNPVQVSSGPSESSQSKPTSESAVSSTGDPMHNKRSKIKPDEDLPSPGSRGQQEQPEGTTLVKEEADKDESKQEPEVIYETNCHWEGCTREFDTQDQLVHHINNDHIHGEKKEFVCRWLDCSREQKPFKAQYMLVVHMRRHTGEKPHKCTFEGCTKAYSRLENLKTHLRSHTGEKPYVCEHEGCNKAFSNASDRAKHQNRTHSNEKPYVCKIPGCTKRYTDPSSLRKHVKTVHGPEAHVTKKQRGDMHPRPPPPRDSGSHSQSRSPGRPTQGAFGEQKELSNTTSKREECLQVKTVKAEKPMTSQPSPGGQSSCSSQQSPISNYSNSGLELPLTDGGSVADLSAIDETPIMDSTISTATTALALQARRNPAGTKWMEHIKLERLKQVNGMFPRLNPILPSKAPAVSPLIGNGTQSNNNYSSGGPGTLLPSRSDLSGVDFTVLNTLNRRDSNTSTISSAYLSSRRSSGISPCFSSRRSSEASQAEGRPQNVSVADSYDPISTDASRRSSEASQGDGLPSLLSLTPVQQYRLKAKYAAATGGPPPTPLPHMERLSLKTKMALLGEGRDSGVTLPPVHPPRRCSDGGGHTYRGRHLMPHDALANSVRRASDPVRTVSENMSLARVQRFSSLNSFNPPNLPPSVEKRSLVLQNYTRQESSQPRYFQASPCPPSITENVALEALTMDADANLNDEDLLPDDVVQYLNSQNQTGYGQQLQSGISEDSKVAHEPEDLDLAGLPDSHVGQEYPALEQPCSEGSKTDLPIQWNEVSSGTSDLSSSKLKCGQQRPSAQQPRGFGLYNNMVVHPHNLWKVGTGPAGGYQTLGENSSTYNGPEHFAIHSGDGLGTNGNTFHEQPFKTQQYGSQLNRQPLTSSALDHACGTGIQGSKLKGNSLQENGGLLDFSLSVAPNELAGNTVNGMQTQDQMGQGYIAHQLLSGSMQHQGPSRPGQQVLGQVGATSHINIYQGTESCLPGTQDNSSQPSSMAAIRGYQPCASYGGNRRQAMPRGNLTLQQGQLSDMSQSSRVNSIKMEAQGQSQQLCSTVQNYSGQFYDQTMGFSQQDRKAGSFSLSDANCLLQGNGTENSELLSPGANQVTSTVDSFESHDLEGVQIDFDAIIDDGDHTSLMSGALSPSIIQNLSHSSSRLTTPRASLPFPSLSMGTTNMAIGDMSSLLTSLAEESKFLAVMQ
# Target: Gli3 (endogenous) (mouse (endogenous in NIH/3T3)) (UniProt Q61602)
# Experiment: affinity purification with mass spectrometry; NIH/3T3 cells treated with 100 nM SAG for 4 h, 'nuclear' and 'cytoplasmic' fractions; goat anti-Gli3 (AF3690) cross-linked to Dynabeads-Protein G, overnight; washes with harsh RIPA (500 mM LiCl), RIPA with 0.8 M urea, mild 0.1% NP-40 buffer; prominent gel bands identified by LC/MS/MS; CRAPome filter (FDR < 10%)
row,Binder,binding
1,"SuFu (endogenous) (protein, UniProt Q9Z0P7 1-484) MAELRPSVAPGPAAPPASGPSAPPAFASLFPPGLHAIYGECRRLYPDQPNPLQVTAIVKYWLGGPDPLDYVSMYRNMGSPSANIPEHWHYISFGLSDLYGDNRVHEFTGTDGPSGFGFELTFRLKRETGESAPPTWPAELMQGLARYVFQSENTFCSGDHVSWHSPLDNSESRIQHMLLTEDPQMQPVRTPFGVVTFLQIVGVCTEELHSAQQWNGQGILELLRTVPIAGGPWLITDMRRGETIFEIDPHLQERVDKGIETDGSNLSGVSAKCAWDDLSRPPEDEEDSRSICLGTQPRRLSGKDTEQIRETLRRGLEINSKPVLPPINSQRQNGLTHDRAPSRKDSLGSDSSTAIIPHELIRTRQLESVHLKFNQESGALIPLCLRGRLLHGRHFTYKSITGDMAITFVSTGVEGAFATEEHPYAAHGPWLQILLTEEFVEKMLEDLEDLTSPEEFKLPKEYSWPEKKLKVSILPDVVFDSPLH",binds
2,"Kif7 (endogenous) (protein, UniProt B7ZNG0 1-1348) MGLEAQRLPGAEEAPVRVALRVRPLLPKELLHGHQSCLRVEPERGRITLGRDRHFGFHVVLGEDTGQEAVYQACVQPLLEAFFEGFNATVFAYGQTGSGKTYTMGEASVASLHEDEQGIIPRAMAEAFKLIDENDLLDCLVHVSYLELYKEEFRDLLEVGTASRDIQLREDDRGNVVLCGVKEVDVEGLDEVLSLLEMGNAARHTGATHFNRLSSRSHTVFTVTLEQRGRTPSRLPRPAAGHLLVSKFHFVDLAGSERVLKTGSTGERLKESIQINSTLLALGNVISALGDPQRRGSHIPYRDSKITRILKDSLGGNAKTVMIACVSPSSSDFDETLNTLNYASRAQNIRNRATVNWHPEAERVPEEQAAGARGPPRHRSETRIIHRGRRVPCPAVGSAAVAAGLGAECARCRARTSAAYSLLRELQAEPGLPGAAARKVRDWLCAVEGERSTLSSASGPDSGIESAPAEDQAAQGTSGRKGDEGTQQLLTLQSQVARLEEENRDFLAALEDAMEQYKLQSDRLREQQEEMVELRLRLELAQPGWGAPGLLQGLPPGSFVPRPHTAPLGGAHTHMLGMMPSTCLPGEEVSSEQQVVSGKEVKAEVLAQADKLRSASSTTSEEEGEEEEEEEEEEEEPPRRTLYLRRNGISNWSQRAGLSPGSPPDRKGPEVCPEEPAAAIPAPQAVGSGKVPVQTRQAPAAMASEWRLAQAQQKIRELAINIRMKEELIGELVRTGKAAQALNRQHSQRIRELEQEAERVRAELCEGQRQLRELEGREPQDASERSRLQEFRKRVAAAQSQVQVLKEKKQATERLVSLSAQSETRLQELERNVQLMRRQQGQLQRRLREETEQKRRLETEMNKRQHRVKELELKHEQQQKILKIKTEEIAAFQRKRRSGSNGSVVSLEQQQKIEEQKKWLDQEMEKVLQQRRALEELGEELRKREVILAKKEALMQEKTGLESKRLRSSQALNEDIVRVSSRLEHLEKELSEKSGQLRQGSAQNQQQIRGEIDTLRQEKDSLLKQRLEIDSKLRQGSLLSPEEERTLFQLDEAIEALDAAIEYKNEAITCRQRVLRASASLLSQCEMNLMAKLSYLSSSETRALLCKYFDKVVTLREEQHQQQIAFSELEMQLEEQQRLVYWLEVALERQRLEMDRQLTLQQKEHEQNVQLLLQQGRDHLGEGLADSKRQYEARIHALEKELGRHMWINQELKQKLSAGSTAGQSQGCERRSLCLENRQCLGNEDGLHPAAPEPLWQSSLLEGVSRVWDESRDLVHAPLPLTWKRSSLCSEQGSSEESRVRETTEPPVGRVLPMGEVGLSWNFGPLPKPRWEPRRTSPGMIDVRKNPL",binds
3,"Xpo7 (endogenous) (protein, UniProt Q9EPK7 1-1087) MADHVQSLAQLENLCKQLYETTDTTTRLQAEKALVEFTNSPDCLSKCQLLLERGSSSYSQLLAATCLTKLVSRTNNPLPLEQRIDIRNYVLNYLATRPKLATFVTQALIQLYARITKLGWFDCQKDDYVFRNAITDVTRFLQDSVEYCIIGVTILSQLTNEINQADTTHPLTKHRKIASSFRDSSLFDIFTLSCNLLKQASGKNLNLNDESQHGLLMQLLKLTHNCLNFDFIGTSTDESSDDLCTVQIPTSWRSAFLDSSTLQLFFDLYHSIPPSFSPLVLSCLVQIASVRRSLFNNAERAKFLSHLVDGVKRILENPQSLSDPNNYHEFCRLLARLKSNYQLGELVKVENYPDVIRLIANFTVTSLQHWEFAPNSVHYLLSLWQRLAASVPYVKATEPHMLETYTPEVTKAYITSRLESVHIILRDGLEDPLEDTGLVQQQLDQLSTIGRCEYEKTCALLVQLFDQSAQSYQELLQSASASPMDIAVQEGRLTWLVYIIGAVIGGRVSFASTDEQDAMDGELVCRVLQLMNLTDSRLAQAGNEKLELAMLSFFEQFRKIYIGDQVQKSSKLYRRLSEVLGLNDETMVLSVFIGKVITNLKYWGRCEPITSKTLQLLNDLSIGYSSVRKLVKLSAVQFMLNNHTSEHFSFLGINNQSNLTDMRCRTTFYTALGRLLMVDLGEDEDQYEQFMLPLTAAFEAVAQMFSTNSFNEQEAKRTLVGLVRDLRGIAFAFNAKTSFMMLFEWIYPSYMPILQRAIELWYHDPACTTPVLKLMAELVHNRSQRLQFDVSSPNGILLFRETSKMITMYGNRILTLGEVPKDQVYALKLKGISICFSMLKAALSGSYVNFGVFRLYGDDALENALQTFIKLLLSIPHSDLLDYPKLSQSYYSLLEVLTQDHMNFIASLEPHVIMYILSSISEGLTALDTMVCTGCCSCLDHIVTYLFKQLSRSTKKRTTPLNRESDCFLHIMQQHPAMIQQMLSTVLNIIIFEDCRNQWSMSRPLLGLILLNEKYFSDLRNSIVNSQPPEKQQAMHLCFENLMEGIERNLLTKNRDRFTQNLSAFRREVNDSMKNSTYGVNSNDMMS",binds

# No constants are given. Whether binding was seen depends on the method and setting. Binding seen in cells or lysates may run through a third protein. Here binding means that the protein was enriched with, or labelled near, the bait; the list need not be complete.
